According to patent US20190023792A1 (Innovent, published 2019):
Numbering of substitutions follows the chain as printed. Results are given in words; binding and its absence hold for the method and conditions named. Some entries that bind do so weakly or less than the wild type.

B1: xd-16 B, Fab format produced from IgG1 expressed in yeast (Fab, V domains shown)
VH: QVQLVQSGAEVKKPGSSVKVSCKASGGTFSSTAISWVRQAPGQGLEWMGGIWPSFGTASYAQKFQGRVTITADESTSTAYMELSSLRSEDTAVYYCARAEYSSTGIFDYWGQGTLVTVSS
VL: DIQMTQSPSSVSASVGDRVTITCRASQGISSWLAWYQQKPGKAPKLLISAASSLQSGVPSRFSGSGSGTDFTLTISSLQPEDFATYYCQQANHLPFTFGGGTKVEIK
notes: Fab produced from the yeast IgG1
B2: xd-16 C, Fab format produced from IgG1 expressed in yeast (Fab, V domains shown)
VH: B1 VH with Q65R, I106T
VL: B1 VL
notes: as for B1
B3: xd-16 D, Fab format produced from IgG1 expressed in yeast (Fab, V domains shown)
VH: B1 VH with G56D, S59N, Q65R, I106T
VL: B1 VL
notes: as for B1
B4: xd-16 E, Fab format produced from IgG1 expressed in yeast (Fab, V domains shown)
VH: B1 VH with S59N, Q62R
VL: B1 VL
notes: as for B1

Biological target: cynoPD-1_Fc (cyno, UniProt B0LAJ3 25-170)
Assay: BLI (ForteBio), Fab in solution, cynoPD-1_Fc on sensor tip

Binder | binding
B1 | binds
B2 | binds
B3 | binds
B4 | binds
